Values joined by “and” are separate entries in the source; they are usually repeats but may differ in a detail not shown here. Equal entries are not always repeated. Hit rate of the full screen: of about 400,000 compounds, about 13,000 (3.2%) were called active. Inconclusive means that the source gave no clear call. Such entries were picked first, then a sample of the others. Calls follow the shape of the dose curve; as a rule, active = well fitted cell-killing curve with a large enough effect; inconclusive = small, poorly fitted or top-dose-only effect, or effect the other way; inactive = flat fitted curve, though single readings scatter. A potency beside an inconclusive call is a rough fit, not a confirmed value.
Assay: qHTS assay for MDR1-selective chemotherapeutics: Primary screen using the drug-selected MDR subline cells KB-V1; also: nearly all actives have a fitted effect of over 60% in size
Settings: KB-V1 MDR cells viability, CellTiter-Glo, 72 h; activity change, negative = cytotoxicity: at 46.1 µM (top of the series)
Summary of the method: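 Luminescent ATP read-out (CellTiter-Glo, 10 min) measures survival of drug-selected KB-V1 MDR cells after 72 h, 37 degrees C compound exposure. Medium: phenol-red-free DMEM, 10% FBS. Values from fitted concentration-response curves.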
% is scaled to controls: 0 for no effect and ±100 for the full control effect; potency is read from the fitted curve at half-maximal effect.

Question: Which “activity change, negative = cytotoxicity” value does the source give for `CCOC(=O)C1(CCc2ccccc2)CCN(C(=O)C2CCCO2)CC1` (stereo unspecified) here?
Answer: inactive: -22.7%

Question: For `COc1ccc(NC(=O)Nc2cccc3c2O[C@@H](CN(C)S(=O)(=O)c2cn(C)cn2)[C@@H](C)CN([C@H](C)CO)C3=O)cc1`, which activity change, negative = cytotoxicity is on record?
Answer: inconclusive: 31.5%

Question: With `CCCCCCCCN1C(=O)[C@H](CC(=O)NCCc2ccccc2OC)C[C@@]2(C(=O)OCC)CCCC=C12` as the molecule, how does the Potency read?
Answer: active: 20.6 µM

Question: With `CC(=O)CCc1ccc(OCC(O)CNCCOc2ccc(C)cc2)cc1` (stereo unspecified) as the molecule, how does the Potency read?
Answer: inconclusive: 6.51 µM [cytotoxic, partial curve, poor fit]

Question: For `COc1ccccc1C=CC(=O)C=Cc1ccccc1OC`, which activity change, negative = cytotoxicity is on record?
Answer: inconclusive: -104%

Question: With `CCOC(=O)CN1N=C(/C=C/c2ccc(C)cc2)CCC1=O` as the molecule, how does the Potency read?
Answer: active: 5.8 µM

Question: For `Cc1cccc(OCC(=O)N2CCCc3ccccc32)c1`, which “activity change, negative = cytotoxicity” value is on record?
Answer: inactive: 0.437%

Question: Which Potency does the source give for `CCN(CC(=O)NCc1ccc(Cl)cc1)C(=O)COc1ccc(Cl)cc1Br` here?
Answer: inconclusive: 20.6 µM [cytotoxic, single point]

Question: For `Cc1ccc2cc(/C=C/C(=O)c3ccco3)c(Cl)nc2c1`, which Potency is on record?
Answer: inconclusive: 29.1 µM [cytotoxic, single point]

Question: For `Cc1nc(Cl)sc1C(=O)NC(C)c1ccc(Cl)cc1` (stereo unspecified), which “activity change, negative = cytotoxicity” value is on record?
Answer: inactive: -26.4%

Question: For `COc1ccc2c(c1)C(=O)C(=O)N2CC1COc2ccccc2O1` (stereo unspecified), which Potency is on record?
Answer: inconclusive: 18.4 µM [cytotoxic, single point]

Question: For `CC(=O)c1ccc(NC(=S)N2c3ccccc3CC2C)cc1` (stereo unspecified), which Potency is on record?
Answer: inconclusive: 16.4 µM [cytotoxic, single point]

Question: For `CN(C)S(=O)(=O)c1ccc(NC(=O)CN2CCN(c3ccccn3)CC2)cc1`, which Potency is on record?
Answer: inconclusive: 29.1 µM [cytotoxic, single point]

Question: For `N#Cc1ccc(/C=C2\CCCCn3c2nc2cc(C(=O)O)ccc2c3=O)cc1`, which Potency is on record?
Answer: inconclusive: 3.66 µM [rising, full curve]

Question: Which “activity change, negative = cytotoxicity” value does the source give for `O=C(CCn1c(=S)[nH]c2ccccc2c1=O)N1CCCCC1` here?
Answer: inactive: -6.98%

Question: For `CCCn1c(SCC(=O)NC2CCCCC2)nnc1-c1ccco1`, which Potency is on record?
Answer: inconclusive: 16.4 µM [cytotoxic, single point]

Question: With `O=C(NCc1ccccc1)C(c1cccs1)N(C(=O)c1csnn1)C1CC1` (stereo unspecified) as the molecule, how does the Potency read?
Answer: active: 18.4 µM

Question: With `COC(=O)C1(C(=O)OC)C[C@H](/C=C/c2ccccc2)N(Cc2ccccc2OC)[C@@H]1c1cccs1` as the molecule, how does the Potency read?
Answer: inconclusive: 18.4 µM [cytotoxic, partial curve, poor fit] and inconclusive: 9.2 µM [cytotoxic, partial curve]

Question: Which Potency does the source give for `COc1ccccc1CNC(=O)CSc1nc2nc(C)c(Cc3ccccc3C)c(C)n2n1` here?
Answer: inconclusive: 29.1 µM [cytotoxic, partial curve, poor fit]

Question: Which “activity change, negative = cytotoxicity” value does the source give for `O=C(NCc1ccc(Cl)cc1)C1CCN(C(=O)c2cnn(-c3ccccc3)c2-n2cccc2)CC1` here?
Answer: inactive: -8.64%

Question: For `O=c1c2ccccc2c(=O)n(Cc2ccccc2)n1Cc1ccccc1`, which Potency is on record?
Answer: inconclusive: 18.4 µM [cytotoxic, single point]

Question: For `CCCC[n+]1ccn(C2=C([O-])c3ccccc3C(=O)/C2=N\S(=O)(=O)c2ccccc2)c1`, which “activity change, negative = cytotoxicity” value is on record?
Answer: inactive: 8.96%

Question: With `O=c1cc(CNc2ccc(Br)cc2)nc2sccn12` as the molecule, how does the “activity change, negative = cytotoxicity” value read?
Answer: inactive: 0%

Question: Which Potency does the source give for `Cc1ccc(C2=NN(CC(=O)NCc3ccco3)C(=O)CC2)cc1` here?
Answer: inconclusive: 9.2 µM [rising, partial curve, poor fit]

Question: With `CCOC(=O)c1c(/N=C/N(C)C)sc(/C=N/Nc2ccccc2)c1-c1ccccc1Cl` as the molecule, how does the “activity change, negative = cytotoxicity” value read?
Answer: inactive: -16.8%

Question: Which Potency does the source give for `CCOC(=O)c1c(C=O)c(C)n(Cc2ccccc2Cl)c1C` here?
Answer: active: 23.1 µM

Question: For `CCCC(c1nnnn1Cc1ccc(F)cc1)N1CCN(C)CC1` (stereo unspecified), which Potency is on record?
Answer: inconclusive: 14.6 µM [cytotoxic, single point]

Question: Which Potency does the source give for `O=C(Nc1ccc2c(c1)CCC2)c1ccccc1` here?
Answer: inconclusive: 18.4 µM [cytotoxic, single point]

Question: For `Cc1cc(C(=O)COC(=O)CCC(=O)c2ccc3c(c2)OCCO3)c(C)n1Cc1ccco1`, which “activity change, negative = cytotoxicity” value is on record?
Answer: inactive: 12.1%

Question: For `CCOc1ccc(NS(=O)(=O)c2ccc(C(=O)N3CCN(c4ncccn4)CC3)cc2)cc1`, which Potency is on record?
Answer: inconclusive: 14.6 µM [cytotoxic, partial curve]

Question: With `CCOC(=O)c1c(NC(=O)CSc2nnc(-c3ccc(OC)cc3)o2)sc2c1CCC2` as the molecule, how does the Potency read?
Answer: inconclusive: 20.6 µM [cytotoxic, single point]

Question: Which “activity change, negative = cytotoxicity” value does the source give for `CCOC(=O)COc1ccc(CC)cc1C(=O)c1ccn2nc(-c3ccc(C)cc3)cc2n1` here?
Answer: inactive: 0%

Question: With `CCC(c1nnnn1Cc1ccccc1)N1CCN(c2ccccc2)CC1` (stereo unspecified) as the molecule, how does the Potency read?
Answer: active: 23.1 µM

Question: For `O=C(CCc1ccccc1)NC(NC(=S)Nc1ccc(Br)cc1)C(Cl)(Cl)Cl` (stereo unspecified), which “activity change, negative = cytotoxicity” value is on record?
Answer: inactive: -26.4%

Question: With `COCCn1c(-c2ccc(-c3ccc([N+](=O)[O-])cc3Br)o2)nc2c1c(=O)[nH]c(=O)n2CC(C)C` as the molecule, how does the Potency read?
Answer: active: 7.31 µM

Question: Which Potency does the source give for `COCCCn1c(=O)c2sccc2n(Cc2cccc(C)c2)c1=O` here?
Answer: inconclusive: 2.31 µM [cytotoxic, partial curve, poor fit]

— PubChem BioAssay AID1347076 (National Center for Advancing Translational Sciences (NCATS), 2019)
